These results are taken from PubChem BioAssay AID2685 (National Center for Advancing Translational Sciences (NCATS), 2010).

This is one part of the list. These are further read-outs of the screen, such as a control signal, another cell line or another target. No call is given for them. Most of these compounds were active or inconclusive in the main read-out, so they are no random draw. Potencies come from curve fits of mixed quality, noted in brackets.

The nature of this test: qHTS Assay for Lipid Storage Modulators in Drosophila S3 Cells.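 For cell number change: cells counted by Cell Tracker Red CMTPX staining in the red channel.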 The settings on record: BODIPY lipid droplet fluorescence, 18-24 h; for cell number change: measured here: cell count max response, cells fed with added oleic acid. The gist of the method:
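Drosophila S3 cells loaded with oleic acid (400 uM, as added) and compounds at several concentrations; lipid droplets imaged by 488-nm laser-scanning cytometry, 500–530 nm intensity and object ratio to cell channel. Percent activity normalized to 20 uM Triacsin C.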

Setting [1] is: measured here: lipid fluorescence (Fed channel) AC50, cells fed with added oleic acid.
Where [2] appears, read: measured here: cell number channel AC50, cells fed with added oleic acid.

As to `COc1cc(C(=O)Nc2c(C(=O)O)[nH]c3ccc(C)cc23)cc(OC)c1OC`, the cell number change was 9.93%.
With `COC(=O)C(NC(=O)c1ccco1)(Nc1nc(C)cs1)C(F)(F)F` (configuration not stated), the cell number change is -3.7%. Also, under setting [1], the AC50 was 6.51 µM [rising, single point].
As for `O=C(Cn1cnc2c(cnn2-c2ccccc2)c1=O)NC1CCCC1`, the cell number change worked out at 57.8%. The AC50 under setting [2] is 13 µM [rising, partial curve]. For the same molecule, the AC50 under setting [1] was 6.51 µM [rising, single point].
Consider `Cc1ccc(S(=O)(=O)N2CCN(C(=O)CN3C(=O)c4ccc([N+](=O)[O-])cc4C3=O)CC2)cc1C`, for which the cell number change is 4.15%. Also, the AC50 under setting [1] is 0.0731 µM [rising, partial curve, poor fit].
`C=CCc1cc(C)ccc1OCCOCCC(C(=O)OCC)C(=O)OCC`: the cell number change was 7.24%. The AC50 under setting [1] is 20.6 µM [rising, single point].
With `Cc1cc(=O)[nH]c(Nc2ccc(N(C)C)cc2)n1`, the cell number change was 1.05%. Besides, the concentration at half-maximal activity (AC50) under setting [2] was 0.00461 µM [rising, full curve, poor fit]. Also, the half-maximal activity concentration (AC50) under setting [1] is 29.1 µM [rising, single point].
Consider `CCn1c(SCC(=O)c2cc(C)ccc2C)nc2cc(S(=O)(=O)N3CCOCC3)ccc21`, for which the cell number change amounted to 83.3%. The AC50 under setting [2] was 6.51 µM [falling, partial curve, poor fit].
As for `Cc1cc(NC(=O)c2cc3ncc(Br)cn3n2)no1`, the cell number change is -6.27%. Under setting [1], the AC50 was 0.651 µM [falling, single point].
For the molecule `CC1(C)CC(=O)CC2(C1)NCC(c1ccccc1Cl)c1c2[nH]c2ccccc12` (configuration not stated), the cell number change is -1.36%.
In the case of `Cc1c(Cc2ccccc2)c(=O)oc2cc(O)cc(O)c12`, the cell number change was 33.5%. Moreover, under setting [2], the AC50 is 32.6 µM [rising, single point]. The half-maximal activity concentration (AC50) under setting [1] was 29.1 µM [rising, single point].
Take `Cc1ccnc(NC(=O)CCC(=O)N(CC(=O)NCCc2ccccc2)c2ccc(F)cc2)c1`: the cell number change was 1.74%. The AC50 under setting [1] is 0.366 µM [rising, partial curve, poor fit].
In the case of `CCn1cc(C(=O)N(CCC(C)C)c2c(N)n(Cc3ccccc3)c(=O)[nH]c2=O)c(=O)c2ccc(C)nc21`, the cell number change was -26.3%. Besides, the half-maximal activity concentration (AC50) under setting [1] was 32.6 µM [falling, single point].
On to `O=C1NC(=O)c2cc(NC(=O)C3CCCO3)ccc21` (configuration not stated), for which the cell number change is -0.831%. Further, the AC50 under setting [1] is 0.58 µM [rising, full curve].
As for `COC(=O)CSc1nnc(-c2ccccc2OC)n1-c1ccc(C)cc1`, the cell number change is 32.6%. Besides, the AC50 under setting [2] was 7.31 µM [rising, full curve, poor fit]. In addition, the AC50 under setting [1] is 7.31 µM [rising, partial curve].
Consider `CCc1cc(=O)oc2c(C)c(OCC(=O)NCc3ccccn3)ccc12`, for which the cell number change is -15.3%. For the same molecule, the half-maximal activity concentration (AC50) under setting [2] is 2.59 µM [falling, partial curve, poor fit]. Besides, the concentration at half-maximal activity (AC50) under setting [1] was 6.51 µM [falling, single point].
With `O=C(COc1ccc(F)c(Cl)c1)N1CCN(c2ccccn2)CC1`, the cell number change is 8.79%. Under setting [1], the AC50 was 0.92 µM [rising, full curve, poor fit].
As for `N#Cc1ncc(C(F)(F)F)cc1Sc1ccc(N)cc1`, the cell number change worked out at 95%. Also, the AC50 under setting [2] was 4.61 µM [rising, partial curve]. Besides, the AC50 under setting [1] is 0.103 µM [rising, full curve, poor fit].
As for `Cc1ccc2c(c1)[C@@H]1CN(C)CC[C@@H]1N2S(=O)(=O)c1ccc(F)cc1`, the cell number change is -18.6%.
For `CCOC(=O)c1c(N2C(=O)C=CC2=O)sc(C)c1C`, the cell number change is -73.6%. Also, the AC50 under setting [1] is 0.00461 µM [falling, full curve, poor fit].
For `N/C(=N\OC(=O)C1CCCCC1)c1cccc([N+](=O)[O-])c1`, the cell number change was -1.6%. Moreover, under setting [1], the AC50 is 18.4 µM [rising, single point].
On to `C[C@H](NC(=O)c1ccccc1Cl)C(=O)OCC(=O)N1CCN(c2ccccc2)CC1`, for which the cell number change came out at 8.51%. The AC50 under setting [1] is 0.146 µM [rising, full curve, poor fit].
Take `COCC(C)n1c(C)cc(C(=O)CSc2nnc(Nc3ccccc3F)s2)c1C` (configuration not stated): the cell number change is -8.58%.
`CC(=O)Nc1ccc(S(=O)(=O)NCCC(=O)OC(C)C(=O)NC2(C#N)CCCCC2)cc1` (configuration not stated): under setting [1], the concentration at half-maximal activity (AC50) is 16.4 µM [rising, single point].
With `O=C1C(C2=NC(c3ccccn3)C3C(=O)N(c4ccc(Cl)cc4Cl)C(=O)C23)=C(O)c2ccccc21` (configuration not stated), the cell number change was -31.1%. Also, the AC50 under setting [2] is 5.8 µM [falling, full curve, poor fit].
Turning to `Cc1cccc(C(C)C)c1NC(=O)C(C)OC(=O)Cc1n[nH]c(=O)c2ccccc12` (configuration not stated), the cell number change came out at 34.4%. Also, the AC50 under setting [2] was 29.1 µM [rising, single point]. Besides, the half-maximal activity concentration (AC50) under setting [1] is 29.1 µM [rising, single point].
For `CCN1CCN(C(=O)CCc2nnc(CCc3ccccc3OC)o2)[C@@H](C)C1=O`, the cell number change was -5.34%. Also, the AC50 under setting [2] was 6.51 µM [rising, single point].
For the molecule `COc1ccc(O)c(C(=O)c2cnc3c(c2)c(=O)[nH]c(=O)n3C)c1`, the cell number change turned out to be 19%.
`CCOC(=O)c1cc(C)[nH]c1C`: the cell number change was 22.6%. Further, the AC50 under setting [1] was 20.6 µM [rising, single point].
`O=C(O)c1ccccc1S(=O)(=O)c1ccccc1CO`: the cell number change was -13.4%. For the same molecule, the AC50 under setting [1] is 0.00461 µM [falling, full curve, poor fit].
`CC(=O)NC1C(=O)N=C(SCc2ccccc2)NC1=O` (configuration not stated): the cell number change is -8.83%. Also, under setting [1], the AC50 is 18.4 µM [falling, partial curve].
As for `O=C(/C=C/c1ccc(F)cc1)N1CCN(S(=O)(=O)/C=C/c2ccccc2)CC1`, the cell number change was found to be 3.69%.
For `CN(C(=O)COC(=O)c1ccccc1OCc1ccc(Cl)cc1)c1c(N)n(Cc2ccccc2)c(=O)[nH]c1=O`, the cell number change is 30.9%. For the same molecule, the AC50 under setting [2] was 4.61 µM [rising, full curve].
Consider `CCc1nnc(NS(=O)(=O)c2ccc(NCc3ccccc3O)cc2)s1`, for which, under setting [1], the AC50 was 0.82 µM [rising, full curve].
Turning to `Cc1cccc(OCCC(=O)Nc2ccc(Cl)cc2F)c1`, the cell number change is 6.57%. In addition, the AC50 under setting [1] is 29.1 µM [rising, single point].
Regarding `Cc1ccc(NC(=S)/N=C(\N)Nc2nc(C)c3ccccc3n2)cc1C`, the cell number change was -4.93%. Also, the concentration at half-maximal activity (AC50) under setting [1] was 0.731 µM [rising, partial curve].
With `O=C(NC(=S)Nc1ccccc1C(=O)O)c1ccc(-c2ccc(Br)cc2)o1`, the cell number change is -12.5%. Further, the AC50 under setting [1] is 0.58 µM [falling, single point].
Consider `Cc1cc(NS(=O)(=O)c2ccc(NC(=O)c3ccc(Br)o3)cc2)nc(C)n1`, for which the cell number change was 14.1%. Further, the AC50 under setting [1] is 0.0651 µM [rising, full curve, poor fit].
For `O=C(CNC(=O)c1ccc(Cl)cc1)OCC(=O)N1CCCC1`, the cell number change was determined as 60.7%. Under setting [2], the AC50 is 1.3 µM [rising, partial curve]. In addition, the concentration at half-maximal activity (AC50) under setting [1] is 29.1 µM [rising, single point].
On to `CCN(CC)S(=O)(=O)N1CCC(C(=O)NCCN2CCOCC2)CC1`, for which the cell number change is -17.8%. The AC50 under setting [1] was 6.51 µM [falling, single point].
As to `CCN(CC)S(=O)(=O)c1cccc(C(=O)OCC(=O)N2CC(=O)Nc3ccccc32)c1`, the cell number change stood at 37%. Besides, the AC50 under setting [2] is 1.16 µM [rising, partial curve]. Further, the half-maximal activity concentration (AC50) under setting [1] was 0.651 µM [rising, single point].
Turning to `COc1cc(CCCN2C(=S)NC[C@H]2Cc2ccc(O)cc2)cc(OC)c1OC`, the cell number change is -22.5%. The AC50 under setting [1] was 29.1 µM [falling, single point].
On to `COc1ccc(Cl)cc1C(=O)Nn1c(C)nc2ccccc2c1=O`, for which the cell number change is 1.6%. In addition, the AC50 under setting [1] was 20.6 µM [rising, partial curve].
For `COCCCN1C(=O)C(O)=C(C(C)=O)C1c1ccccn1` (configuration not stated), the cell number change was -14.9%. Further, the AC50 under setting [2] was 0.731 µM [falling, full curve, poor fit]. Moreover, under setting [1], the AC50 was 14.6 µM [falling, partial curve].
Consider `COc1ccc2c(-c3ccccc3)cc(SC(C)C(N)=O)nc2c1` (configuration not stated), for which the cell number change was -30.5%. Further, under setting [2], the AC50 is 25.9 µM [falling, partial curve, poor fit]. Under setting [1], the AC50 is 32.6 µM [falling, single point].
`O=C(CN1CCN(C2CCCCC2)CC1)Nc1ccccc1N1CCCCC1`: the cell number change is 18.2%. For the same molecule, under setting [1], the AC50 was 29.1 µM [rising, single point].
Turning to `O=C(CCC(=O)c1cccs1)OCc1ccc([N+](=O)[O-])cc1`, the cell number change is -14.1%. Besides, under setting [1], the AC50 is 32.6 µM [falling, single point].
`COc1cccc(NC(=O)CN(C)C(=O)Cn2c(=O)oc3ccccc32)c1`: the cell number change is -91.1%. In addition, the concentration at half-maximal activity (AC50) under setting [2] is 20.6 µM [falling, partial curve]. Moreover, the AC50 under setting [1] was 0.00517 µM [rising, full curve, poor fit].
As for `CCCC(=O)c1ccc2c(c1)OCCO2`, the cell number change was -20.2%. Moreover, under setting [1], the AC50 was 29.1 µM [falling, single point].
Consider `CCOC(=O)CN=C1CC(C)(C)CC2=C1Sc1ncnc(N(C)C)c1N2`, for which the cell number change is -30.7%. Further, the AC50 under setting [2] is 32.6 µM [falling, single point]. Also, the AC50 under setting [1] is 0.82 µM [rising, single point].
As for `COC(=O)c1c(-c2ccncc2)csc1NC(=O)c1ccoc1C`, the cell number change came to 11.2%. In addition, the half-maximal activity concentration (AC50) under setting [1] was 0.58 µM [rising, single point].
With `COc1ccc(NC(=O)CSc2nncn2C)c([N+](=O)[O-])c1`, the cell number change amounted to 147%.
Turning to `COc1cc(C(=O)Nc2nnc(-c3sccc3C)s2)cc(OC)c1OC`, the AC50 under setting [1] is 0.651 µM [falling, single point].
With `CCn1c(CC(=O)Nc2ccc(C)c(Cl)c2)nnc1SCC(=O)Nc1nc(C)cs1`, the AC50 is 1.16 µM [rising, partial curve, poor fit] under setting [2] and 1.46 µM [rising, partial curve] under setting [1].
As for `Cn1nnnc1SC(C(=O)Nc1cccc(C(F)(F)F)c1)c1ccccc1` (configuration not stated), the cell number change was 33.3%. Moreover, the AC50 under setting [2] was 32.6 µM [rising, single point].
For `COc1ccc2c(c1)C1=NN(/C(C)=C/C(C)=O)C(c3cccc(F)c3)C1CC2` (configuration not stated), the cell number change was 35.2%. Also, the AC50 under setting [2] is 6.51 µM [rising, partial curve]. Also, the concentration at half-maximal activity (AC50) under setting [1] was 6.51 µM [rising, partial curve].
For the molecule `CN(CC(=O)Nc1ccc(F)cc1)C(=O)Cn1cnc2ccc(Cl)cc2c1=O`, the cell number change was found to be 3.43%. In addition, the AC50 under setting [2] was 6.51 µM [falling, single point]. Also, the AC50 under setting [1] is 6.51 µM [falling, single point].
